No dose or concentration is given here for some results.
Tested on: patients with Type 2 diabetes mellitus (T2DM)
Assay: Average daily insulin glargine dose at Week 30 (Example 2)
Assay type: in vivo, human

In the case of “Gly(A21)-Arg(B31)-Arg(B32)-human insulin [Insulin Glargine]”, the “Mean daily insulin glargine dose at Week 30” value (Example 2) was 40.46 U, the “Average daily insulin glargine dose, Week 30, LS Mean (SE)” value (MMRM, mITT population) was 40.46 (0.701) U and the “Average daily insulin glargine dose, Week 30, Mean (SD)” value (mITT population) was 40.34 (14.85) U. For the same substance, the “Average daily insulin glargine dose, Week 30, Median” value (mITT population) was 40.00 U.

Source: US12186374B2 (Sanofi-Aventis Deutschland GmbH, priority 2014, dated 2025)
